Assay results

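A cell-based FRET test of anthrax lethal toxin entry, tracked through the 460 nm emission signal; the cell line is not named here. Each compound was tested as a concentration series from about 0.0005 to 40 µM. The number is the fitted AC50 of the 460 nm signal alone; lower values mean a more potent effect. A falling signal goes with compounds filed as inhibitors or cytotoxic, a rising one with activators or fluorescent compounds (inferred from the filed classes).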

Values are in µM. Common to all entries: measured here: 460 nm channel. Part of the compounds only, not a random draw; the main read-out is not listed here. Potencies fitted to partial, single-point or poorly fitting curves are rough. The first word of each remark tells which way the curve ran; it can be opposite to the aim of the assay.

| SMILES | AC50 (µM) | curve as filed |
|---|---|---|
| `O=C(CN1CCOc2ccccc21)N1CCC(Cc2ccccc2)CC1` | 10 | falling, partial curve |
| `O=C(O)CCN(CCC(=O)O)c1ccccc1` | 3.981 | rising, full curve |
| `Cn1cc(-c2nc3cnc(Oc4ccccc4)nc3n(CCC#N)c2=O)c2ccccc21` | 0.2512 | rising, full curve, poor fit |
| `CN1CCC(=C2c3ccccc3Sc3ccccc32)CC1` | 10 | falling, partial curve, poor fit |
| `COc1ccc(-n2nc(C(=O)N3CCN(c4ccc(F)cc4)CC3)c3ccccc3c2=O)c(OC)c1` | 12.59 | rising, partial curve |
| `COCc1cc(C)nc(N2CCc3ccccc32)c1C#N` | 3.981 | rising, single point |
| `CCOC(=O)C1CCCN(Cc2ccccc2C)C1` (stereo not drawn) | 0.007943 | falling, full curve, poor fit |
| `Cc1nc(-c2cccc(S(=O)(=O)N3CCOCC3)c2)cs1` | 0.3162 | falling, full curve |
| `O=C(C1CC1)N1CCc2cc(Br)cc(S(=O)(=O)N3CCOCC3)c21` | 3.162 | falling, partial curve, poor fit |
| `CN1CCN(c2ccc([N+](=O)[O-])c3[nH]o[n+](=O)c23)CC1` | 3.981 | rising, single point |
| `O=C(O)CCCc1ccc2ccc3ccccc3c2c1` | 1 | rising, single point |
| `O=C1c2oc3ccc(Br)cc3c(=O)c2C(c2cccnc2)N1Cc1ccco1` (stereo not drawn) | 0.02512 | falling, full curve, poor fit |
| `Cn1c(=O)c(-c2ccc(F)cc2)nc2cnc(N3CCOCC3)nc21` | 6.31 | rising, single point |
| `CN(/N=C\c1ccccc1O)c1ccc2ccccc2n1` | 0.5012 | rising, single point |
| `CCCN(CCC)CCNc1c(N2CCN(C(=O)OCC)CC2)c(=O)c1=O` | 31.62 | falling, partial curve, poor fit |
| `O=C(Nc1ccc2c(c1)OCCO2)C1CCCN(S(=O)(=O)Cc2ccccc2)C1` (stereo not drawn) | 7.943 | rising, partial curve, poor fit |
| `CC(C)Cn1c(=O)c2c(nc3n2CCCN3CCc2ccccc2)n(C)c1=O` | 1.585 | rising, partial curve |
| `Cc1cc(C(=O)CSc2nn(-c3ccccc3)c(=S)s2)c(C)n1Cc1ccco1` | 12.59 | falling, partial curve |
| `CCCCNC(=O)C(c1ccc(OCC(=O)OC)c(C(=O)OC)c1)N(Cc1ccccn1)C(=O)CCCCCN1C(=O)NC(c2ccc(-c3ccccc3)cc2)C(C(=O)OCc2ccccc2)=C1C` (stereo not drawn) | 31.62 | falling, single point |
| `COCCn1c(=O)c(-c2ccc(OC)cc2)nc2cnc(N3CCN(C)CC3)nc21` | 10 | rising, partial curve |
| `CCCCCn1c(=O)c(C(=O)Nc2ccncc2)c(O)c2ccccc21` | 3.981 | falling, partial curve |
| `CC(C)Oc1cccc(-n2c(CCc3c[nH]c4ccc(Br)cc34)nc3ccccc3c2=O)c1` | 1 | falling, full curve, poor fit |
| `S=c1[nH]c2ncccc2o1` | 3.981 | rising, single point |
| `CCOC(=O)Nc1ccc2c(c1)N(C(=O)CCN(C)C)c1ccccc1S2` | 10 | falling, partial curve |
| `CCOC(=O)C1CCN(C(=O)Nc2ccc3nc(-c4ccco4)c(-c4ccco4)nc3c2)CC1` | 15.85 | falling, partial curve |
| `CCCN(CCC)S(=O)(=O)c1ccc(C(=O)NCc2ccc3c(c2)OCO3)cc1` | 25.12 | falling, single point |
| `O=C(/C=C\c1ccc(Cl)cc1)N[C@@]12CCC(=O)[C@@H]3Oc4c(O)ccc5c4[C@@]31CCN(CC1CC1)[C@@H]2C5` | 12.59 | falling, single point |
| `COc1cc(CO)cc(Br)c1OCc1cccnc1` | 10 | rising, single point |
| `CCCCOc1ccc(CSc2ncn[nH]2)cc1` | 19.95 | falling, partial curve, poor fit |
| `COC(=O)c1ccc(N/C(C)=C/C(=O)c2ccc(C)o2)cc1` | 1.995 | falling, full curve |
| `CCOC(=O)N(Cc1ccccc1)C(C(=O)O)C(C(=O)O)N(Cc1ccccc1)C(=O)OCC` (stereo not drawn) | 0.1995 | falling, full curve, poor fit |
| `Cc1cc(C)c2nc(N3CCCC3)c(C#N)cc2c1` | 6.31 | rising, partial curve |
| `COc1ccc(-c2nc3cnc(N(C)C)nc3n(CCc3ccccc3)c2=O)cc1` | 0.3981 | rising, full curve |
| `COCCOC(=O)C1=C(C)NC(=O)N(C(C)=O)C1c1ccc(Cl)cc1` (stereo not drawn) | 12.59 | rising, partial curve |
| `C[C@]12CC[C@H]3c4ccc(OC[C@H]5CO5)cc4CC[C@H]3[C@H]1CC[C@@H]2O` | 1 | rising, partial curve |

For reference, 4 entries once more:

{"smiles": "O=C(/C=C\\c1ccc(Cl)cc1)N[C@@]12CCC(=O)[C@@H]3Oc4c(O)ccc5c4[C@@]31CCN(CC1CC1)[C@@H]2C5", "AC50 (µM)": "12.59", "curve as filed": "falling, single point"}
{"smiles": "CCCCNC(=O)C(c1ccc(OCC(=O)OC)c(C(=O)OC)c1)N(Cc1ccccn1)C(=O)CCCCCN1C(=O)NC(c2ccc(-c3ccccc3)cc2)C(C(=O)OCc2ccccc2)=C1C", "stereo": "stereo not drawn", "AC50 (µM)": "31.62", "curve as filed": "falling, single point"}
{"smiles": "Cn1c(=O)c(-c2ccc(F)cc2)nc2cnc(N3CCOCC3)nc21", "AC50 (µM)": "6.31", "curve as filed": "rising, single point"}
{"smiles": "S=c1[nH]c2ncccc2o1", "AC50 (µM)": "3.981", "curve as filed": "rising, single point"}

From PubChem BioAssay record AID912 (NCATS, 2007).